# In patent US12144299B2, “Mobilisation of transposable elements to enhance genetic and epigenetic variability in a population” (priority 2015, dated 2024):
# At least one compound was matched to its structure with a doubt left.
# Tests used:
# ONSEN retrotransposon = assay: ONSEN extrachromosomal DNA accumulation by qPCR in seedlings after heat stress; format: in vivo, Arabidopsis thaliana; conditions: HS
# Description: After stratification for two days at 4° C., Arabidopsis thaliana plants (accession Col-0) were grown on sterile ½ MS medium with 1% sucrose and a pH of 5.8 (control medium) under long day conditions (16 h light) at 24° C. (day) and 22° C. (night), respectively. Oryza sativa plants were grown on sterile ½ MS medium with 1% sucrose and a pH of 5.8 (control medium) 16 h at 28° C. (day) and 27° C. (night), respectively.
# The induction of epigenetic changes and the activation and stable integration of transposable elements in Arabidopsis seedlings was enhanced by germinating and growing them on ½ MS-medium that contained zebularine (final concentration: 10-40 μM), α-amanitin (final concentration: 0.005-20 μg/ml) or a combination of both chemicals (inductive media).
# In order to trigger the transposition of the heat-responsive retrotransposon ONSEN, seven days old seedlings were exposed to a cold shock for 24 h at 6° C. followed by a heat-stress for 24 h at 37° C. (heat stress, HS) under controlled conditions in a growth chamber (Sanyo). Control plants were transferred back to longday-conditions 24° C. […]
# The copy numbers of ONSEN were determined with qPCRs on total DNA using a TaqMan master mix (Life Technologies) in a final volume of 10 μl in the Light-Cycler 480 (Roche). ACTOPIA17 copy number was measured by quantitative PCR (qPCR) in a Light-Cycler 480 (Roche), using XYBR 421 Green I Master Mix. […]
# ONSEN LTR = assay: DNA methylation analysis (DdeI chop PCR, bisulfite sequencing) at the ONSEN LTR; format: in vivo, Arabidopsis thaliana
# Description: 20 ng of total genomic DNA isolated from Arabidopsis seedlings was digested with the methylation sensitive restriction enzyme, Dde1 (NEB) at 37° C. over night. Following heat inactivation at 60° C. for 20 min, the digested DNA was used as a template for the chopPCR. Actin2 served as a control for the digest. Undigested DNA was used as a loading control. PCR products were separated on a 1% agarose gel and stained with Midori Green.
compound,measurement,setting,value
"O=c1ncccn1[C@@H]1O[C@H](CO)[C@@H](O)[C@H]1O [Z, zebularine]",Z-induced increase in ONSEN ecDNA accumulation in nrpb2-3 versus wild type,"ONSEN retrotransposon; nrpb2-3 background, Z 10 μM",more distinct
same,ONSEN ecDNA accumulation after heat stress,"ONSEN retrotransposon; wild-type seedlings, A 5 μg/ml, Z 40 μM",generally enhanced the production of ONSEN ecDNA
same,DNA methylation at the ONSEN LTR at higher A concentration,"ONSEN LTR; WT (Col) seedlings, A 20 μg/ml, Z 10 μM",reduction in DNA-methylation
same,CHH methylation at the ONSEN LTR,"ONSEN LTR; after CS, A 5 μg/ml, Z 40 μM",reduced CHH methylation levels
